Experimental data published in patent publication US9309315B2, “Therapy with CD4 binding peptides and radiation” (GENMAB A/S, priority 2005, dated 2016).
These are yes or no findings as the source states them, for the method shown. In cells and extracts the contact can be indirect. Some binding calls cover weakened binding; strength is not graded here. Sequences can lack the tags named with a protein.

Target: T1, Dok-1 (UniProt Q99704)
T1 sequence (tyrosine-phosphorylated after zanolimumab exposure; sites not given, looked up): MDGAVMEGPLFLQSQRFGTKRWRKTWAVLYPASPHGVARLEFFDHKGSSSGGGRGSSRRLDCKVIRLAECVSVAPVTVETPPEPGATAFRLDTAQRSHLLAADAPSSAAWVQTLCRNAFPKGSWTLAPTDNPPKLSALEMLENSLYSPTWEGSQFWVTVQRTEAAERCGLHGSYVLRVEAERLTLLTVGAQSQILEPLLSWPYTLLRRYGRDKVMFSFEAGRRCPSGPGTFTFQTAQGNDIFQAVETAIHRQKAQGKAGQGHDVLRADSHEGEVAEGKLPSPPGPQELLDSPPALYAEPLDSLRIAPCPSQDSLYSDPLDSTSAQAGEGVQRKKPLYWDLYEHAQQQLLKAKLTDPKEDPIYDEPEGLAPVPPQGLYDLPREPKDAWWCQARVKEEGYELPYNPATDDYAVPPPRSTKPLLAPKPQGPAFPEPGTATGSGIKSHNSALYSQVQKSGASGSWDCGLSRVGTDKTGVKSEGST
Test: pull-down of SH2-binding proteins from CD4+ T cell lysates on glutathione agarose beads, Western blot for Dok-1

binding: binds
B1: SH2C-RasGAP-GST (protein, UniProt P20936 351-441, looked up, not shown: a dimerising Fc or GST)
chain: WFHGKISKQEAYNLLMTVGQVCSFLVRPSDNTPGDYSLYFRTNENIQRFKICPTPNNQFMMGGRYYNSIGDIIDHYRKEQIVEGYYLKEPV
